This note sets out measurements from patent US20230101768A1, “METHOD TO TREAT MANGANESE TOXICITY AND MANGANESE-INDUCED PA[…] HUMANS” (priority 2021, published 2023).

For this data set, the system named is C57BL/6J mice. To be noted: 4 weeks treatment. As for the experimental part:
To assay for the protective effect of roxadustat, animals were exposed to roxadustat or vehicle with or without manganese in drinking water from ˜4 weeks of age. Treatment lasted for 4 weeks from initiation. Roxadustat (Selleckchem) was prepared as a 50 mg/ml stock solution in DMSO, then diluted to 1 mg/ml in sterile phosphate buffered saline (PBS), and delivered by daily i.p. injection at 10 mg/kg. Vehicle was 2% DMSO in PBS. For this experiment, drinking water manganese levels were adjusted to 0.138 mg absolute manganese/ml so that animals received ˜30 mg absolute manganese/kg daily. A higher level of manganese was used because exposure was initiated after weaning, which was necessary because daily i.p. injections for roxadustat delivery were not possible in the pre-weaning period.
Animals were euthanized using carbon dioxide and tissue dissected for qRT-PCR or ICPMS analyses as described by us previously (50).
Inductively coupled plasma mass spectrometry. Metal measurements using ICP-MS were performed exactly as described by us previously (47, 50, 51, 99).

With `O.O.O.O.[Cl][Mn][Cl]` [manganese, manganeseCl2.4H2O], the “Levels of other metals (Fe, Cu, and Zn) in blood and brain” value was “not impacted”.

Regarding `Cc1nc(C(=O)NCC(=O)O)c(O)c2ccc(Oc3ccccc3)cc12` [roxadustat, 2-[(4-hydroxy-1-methyl-7-phenoxyisoquinoline-3-carbonyl)amino]acetic acid], the “Levels of other metals (Fe, Cu, and Zn) in blood and brain” value was “not impacted”.
